Results as given in PMC12045374.

By UniProt entry, the sequences of proteins in these tests, tags left out.
UniProt P18615: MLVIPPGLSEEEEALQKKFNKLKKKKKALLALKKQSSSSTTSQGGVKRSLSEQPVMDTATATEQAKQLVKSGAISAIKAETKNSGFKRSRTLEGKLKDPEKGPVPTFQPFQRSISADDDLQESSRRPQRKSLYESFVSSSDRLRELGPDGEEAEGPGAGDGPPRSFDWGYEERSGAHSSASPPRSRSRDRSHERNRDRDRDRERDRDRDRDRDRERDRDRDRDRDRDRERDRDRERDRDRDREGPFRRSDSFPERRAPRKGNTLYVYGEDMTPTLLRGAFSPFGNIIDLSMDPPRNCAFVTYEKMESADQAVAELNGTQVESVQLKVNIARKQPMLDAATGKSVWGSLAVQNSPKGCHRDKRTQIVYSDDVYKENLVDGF
UniProt Q12824: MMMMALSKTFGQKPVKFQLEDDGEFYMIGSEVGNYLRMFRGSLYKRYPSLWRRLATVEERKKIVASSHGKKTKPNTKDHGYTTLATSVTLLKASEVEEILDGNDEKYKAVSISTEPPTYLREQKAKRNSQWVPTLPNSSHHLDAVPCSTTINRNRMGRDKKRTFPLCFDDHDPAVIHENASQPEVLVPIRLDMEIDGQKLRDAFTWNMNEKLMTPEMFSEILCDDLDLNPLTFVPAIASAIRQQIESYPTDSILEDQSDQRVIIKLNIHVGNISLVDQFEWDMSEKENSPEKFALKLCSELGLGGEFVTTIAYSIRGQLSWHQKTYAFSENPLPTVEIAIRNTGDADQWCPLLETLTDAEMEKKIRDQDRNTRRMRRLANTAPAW
UniProt Q15022: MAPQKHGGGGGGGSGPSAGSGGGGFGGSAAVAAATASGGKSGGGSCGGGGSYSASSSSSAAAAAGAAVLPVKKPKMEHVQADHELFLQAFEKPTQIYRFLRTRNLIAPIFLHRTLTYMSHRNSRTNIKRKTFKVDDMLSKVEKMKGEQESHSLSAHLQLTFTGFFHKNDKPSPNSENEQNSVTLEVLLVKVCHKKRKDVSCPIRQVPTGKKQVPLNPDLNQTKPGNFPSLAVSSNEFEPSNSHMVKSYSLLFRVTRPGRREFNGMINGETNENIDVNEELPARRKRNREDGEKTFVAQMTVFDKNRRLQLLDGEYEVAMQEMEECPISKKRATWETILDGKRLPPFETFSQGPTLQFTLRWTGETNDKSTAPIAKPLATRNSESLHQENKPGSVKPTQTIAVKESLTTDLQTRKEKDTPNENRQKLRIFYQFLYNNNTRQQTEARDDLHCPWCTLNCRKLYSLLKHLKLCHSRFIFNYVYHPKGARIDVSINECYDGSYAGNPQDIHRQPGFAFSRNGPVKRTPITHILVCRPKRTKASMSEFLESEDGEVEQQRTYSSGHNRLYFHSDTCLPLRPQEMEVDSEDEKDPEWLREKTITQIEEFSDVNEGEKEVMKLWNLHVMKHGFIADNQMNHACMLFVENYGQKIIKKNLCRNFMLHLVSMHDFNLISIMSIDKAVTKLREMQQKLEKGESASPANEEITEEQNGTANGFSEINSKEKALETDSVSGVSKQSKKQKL

Target: Negative Elongation Factor E (NELFE) (human (endogenous in Hep3B, Huh1, HLE and HCC patient tissue)) (UniProt P18615)
Test: affinity purification with mass spectrometry; immunoprecipitation of NELFE from fractionated nuclear lysates of Hep3B and Huh1; proteins found only in the nucleus, not the cytoplasm, were selected

| binding | Substance |
| --- | --- |
| binds | SMARCB1 (from UniProt Q12824 1-385) |
| binds | SUZ12 (from UniProt Q15022 1-739) |

No constants are given. Whether binding was seen depends on the method and setting. Binding seen in cells or lysates may run through a third protein. These calls come from enrichment with a bait or labelling near it, and not all partners need be listed.
